Measured values published in paper PMC10081574, “Evaluation of Antiviral Activity of Gemcitabine Derivatives against Influenza Virus and Severe Acute Respiratory Syndrome Coronavirus 2” (ACS Infectious Diseases, 2023).

Tests used:
SARS-CoV-2 = test: Anti-SARS-CoV-2 immunofluorescence assay (anti-S) in Calu-3 cells; assay type: cell-based; conditions: Severe acute respiratory syndrome coronavirus 2, 48 h; Calu-3, MOI 0.05, 2 days
[1] = Cytotoxicity to mock-infected Calu-3 cells (MTT); conditions: human

CCC(CC)COC(=O)[C@H](C)N[P@](=O)(OC[C@H]1O[C@@](C#N)(c2ccc3c(N)ncnn23)[C@H](O)[C@@H]1O)Oc1ccccc1 [Remdesivir, reference compound]
EC50 (SARS-CoV-2): 780 nM | CC50 at 2 days [1]: > 100000 nM
